Measured values taken from paper PMC11948754.
These are yes or no findings as the source states them, for the method shown. In cells and extracts the contact can be indirect. Some binding calls cover weakened binding; strength is not graded here.

The chains behind the UniProt entries cited, without tags or fusion partners.
UniProt Q13042: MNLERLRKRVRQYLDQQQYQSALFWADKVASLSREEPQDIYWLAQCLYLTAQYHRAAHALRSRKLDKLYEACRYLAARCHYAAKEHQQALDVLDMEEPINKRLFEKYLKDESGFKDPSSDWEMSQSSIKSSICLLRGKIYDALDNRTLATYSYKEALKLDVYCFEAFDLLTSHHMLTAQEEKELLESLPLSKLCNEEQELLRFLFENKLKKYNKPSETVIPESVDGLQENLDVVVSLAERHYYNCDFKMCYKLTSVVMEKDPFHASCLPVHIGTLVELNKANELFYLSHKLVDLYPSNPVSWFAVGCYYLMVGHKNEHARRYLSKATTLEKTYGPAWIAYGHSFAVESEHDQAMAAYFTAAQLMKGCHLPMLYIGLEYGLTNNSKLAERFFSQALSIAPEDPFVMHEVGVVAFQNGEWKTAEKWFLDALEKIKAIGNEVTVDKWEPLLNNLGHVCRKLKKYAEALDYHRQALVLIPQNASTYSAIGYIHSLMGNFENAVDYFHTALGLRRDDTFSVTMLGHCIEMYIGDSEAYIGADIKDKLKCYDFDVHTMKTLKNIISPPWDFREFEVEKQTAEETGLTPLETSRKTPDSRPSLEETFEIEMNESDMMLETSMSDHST
UniProt P05412: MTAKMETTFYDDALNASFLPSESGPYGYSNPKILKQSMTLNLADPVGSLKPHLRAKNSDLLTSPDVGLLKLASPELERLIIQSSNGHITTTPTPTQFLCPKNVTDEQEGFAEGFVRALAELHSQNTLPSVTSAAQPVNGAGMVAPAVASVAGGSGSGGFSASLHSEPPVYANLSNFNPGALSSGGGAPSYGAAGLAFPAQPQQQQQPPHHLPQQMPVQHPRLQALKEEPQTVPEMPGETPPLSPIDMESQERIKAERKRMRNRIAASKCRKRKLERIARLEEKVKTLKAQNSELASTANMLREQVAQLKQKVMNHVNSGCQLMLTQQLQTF

Target: CDC16 (human (endogenous in SH-SY5Y)) (UniProt Q13042)
Assay: co-IP; anti-CDC16 antibody on Dynabeads Protein G, total cell lysates, 4 °C overnight, washed with PBS 0.1% Tween-20, Western blot; IgG as negative control; NC and c-Jun OE SH-SY5Y cells

binding: binds
Substance: c-Jun (from UniProt P05412 1-331)
